{"source": "paper PMC3871619", "molecular_target": "T1, 15-lipoxygenase-2 (rat (endogenous in PASMCs)) (UniProt Q8K4F2)", "T1 sequence": "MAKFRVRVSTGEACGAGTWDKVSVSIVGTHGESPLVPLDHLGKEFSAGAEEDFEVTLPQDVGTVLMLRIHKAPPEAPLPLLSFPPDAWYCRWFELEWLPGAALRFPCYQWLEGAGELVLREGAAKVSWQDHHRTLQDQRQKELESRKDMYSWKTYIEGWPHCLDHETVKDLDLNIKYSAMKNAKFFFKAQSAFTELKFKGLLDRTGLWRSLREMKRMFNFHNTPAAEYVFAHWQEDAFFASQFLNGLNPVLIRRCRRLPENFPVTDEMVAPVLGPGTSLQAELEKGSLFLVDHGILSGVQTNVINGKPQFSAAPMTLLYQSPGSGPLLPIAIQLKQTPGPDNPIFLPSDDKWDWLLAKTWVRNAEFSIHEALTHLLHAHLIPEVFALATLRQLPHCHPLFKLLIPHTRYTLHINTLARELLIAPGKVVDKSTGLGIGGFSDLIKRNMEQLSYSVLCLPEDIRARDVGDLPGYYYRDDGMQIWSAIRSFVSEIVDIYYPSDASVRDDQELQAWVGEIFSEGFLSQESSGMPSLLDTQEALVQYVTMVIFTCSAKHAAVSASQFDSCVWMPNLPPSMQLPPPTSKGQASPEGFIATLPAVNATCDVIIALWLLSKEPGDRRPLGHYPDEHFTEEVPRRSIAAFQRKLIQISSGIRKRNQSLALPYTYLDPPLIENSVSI", "assay": "co-IP; 100 ug PASMC lysate incubated with 2 ug mouse monoclonal 15-LO-2 antibody, then Protein A/G-Sepharose beads; immunoblot with rabbit anti-TERT; mouse IgG as negative control, 5% input", "note": "Results are given in words; binding and its absence hold for the method and conditions named. Binding seen in cells or lysates may run through a third protein. Some results given as binding are weak or reduced against the parent protein; the word gives no strength.", "data": [{"substance": "Telomerase reverse transcriptase (from UniProt Q673L6-1 1-1125)", "values": [{"measurement": "binding", "value": "binds"}]}]}
